Values joined by “and” are separate entries in the source; they are usually repeats but may differ in a detail not shown here. Equal entries are not always repeated. About 2,300 (0.68%) of roughly 340,000 compounds were called active. The shares of active, inactive and inconclusive entries below differ from those in the screen. Cut-off read from the data, not from the text of the source: active = growth rescue above about 28% (passing the limit was not always enough); inconclusive = no clear call, values can overlap the other calls.
test: rescue of yeast from PfHsp40 toxicity, primary screen, S. cerevisiae, ATP luminescence (AID 504582);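 note: yeast W303a lacking pdr1 and pdr3 grown in galactose medium; growth measured after three days at 30 °C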; conditions: S. cerevisiae expressing PfHsp40, growth rescue, at 12.5 µM, stronger effect = higher value

Structure (SMILES)	growth rescue
N#CCC(=O)N/N=C/c1cccc(Oc2ccccc2)c1	inconclusive: 30.8%
CCn1ccnc1CN(C)Cc1nc(CCC(C)C)no1	inconclusive: 35.1%
CN(C)CCCNc1cc(C(C)(C)C)nc2c(-c3ccc(Cl)cc3)cnn12	active: 43.7%
CCOC(=O)c1c(C)[nH]c(C(=O)CSc2nc(C)cc(C)n2)c1C	inconclusive: 26.5%
COc1cc(NC(=O)c2cccc3c2C(=O)N(C2CCCCC2)C3)cc(OC)c1OC	inconclusive: 49.4%
CC(C)(C)NC(=O)COC(=O)c1ccc(O)cc1	inactive: -0.105%
COc1cc(NC(=O)C2CCCN(c3ncnc4c3nc3n4CCCCC3)C2)cc(OC)c1OC (stereo unspecified)	active: 44.1%
CN(C1CCCCC1)S(=O)(=O)c1ccc(SCC(=O)C(C)(C)C)nc1	inconclusive: 31.8%
COc1ccc(OCCC(=O)Nc2ccc(S(N)(=O)=O)cc2)cc1	inconclusive: 35.5%
FC(F)(F)C1=CC(c2ccc(Cl)cc2)=NCCN1	inconclusive: 38%
CCn1c(COc2ccc(Cl)cc2)nnc1SCc1nc2ccccc2[nH]1	inconclusive: 27.2%
O=C(Nc1ccc(N2CCN(C(=O)c3ccccc3)CC2)c(Cl)c1)c1ccc(Br)o1	inactive: 5.16%
C#CCn1c(=NC(=O)c2sc3ccccc3c2Cl)sc2cc(S(N)(=O)=O)ccc21	inactive: -0.214%
COC(=O)C(C)Oc1ccc(Cc2ncc(C(F)(F)F)cc2Cl)cc1 (stereo unspecified)	inactive: 0.747%
CCN(CC)S(=O)(=O)c1ccc(N2C(=O)Nc3ccccc3N2O)cc1	inconclusive: 39.5%
COc1ccc(-c2cc(C(F)(F)F)c3c(=O)n(-c4ccccc4)[nH]c3n2)cc1	inconclusive: 73.3%
CCOC(=O)CC1C(=O)NCCN1Cc1cccc(OC)c1 (stereo unspecified)	inactive: -0.453%
COc1nc(N/N=C/c2ccc(C)cc2)nc(N2CCCCC2)n1	inconclusive: 33.1%
NCc1ccccc1COc1ccccc1	inconclusive: 98.8%
CCOC(=O)C1=C(C)N(CCCCCC(=O)O)C(=O)NC1c1cccc([N+](=O)[O-])c1 (stereo unspecified)	inactive: 1.63%
CC(C)CCNC(=O)c1onc(CSc2ccc(F)c(F)c2)c1C(=O)NCCC(C)C	active: 37.3%
CCc1ccc(NC(=O)N[C@H](C(=O)O)C(C)CC)cc1 (stereo partly specified)	inactive: -0.138%
C[C@@H]1C[C@@H]2O[C@H]2/C=C\C=C\C(=O)Cc2c(Cl)c(O)cc(O)c2C(=O)O1	inconclusive: 36.7%

Structure (SMILES)	growth rescue
Cc1ccc(N2CCOCC2)c2c1C(=O)c1ccccc1C2=O	inconclusive: 60.1%
Cc1cccc(Cn2c(N3CCN(c4ccccc4)CC3)nc3c2c(=O)n(C)c(=O)n3C)c1	inconclusive: 27.8%
COC(=O)CSc1nnc(-c2ccc(OC)cc2OC)o1	inactive: 0.074%
Cc1cc(N2CCN(c3ccccc3)CC2)nc2ccccc12	inactive: 0.783%
CCC(=O)Nc1nc2ccc(NC(=O)COc3ccccc3)cc2s1	inconclusive: 31.2%
Cn1c(-c2ccccc2)cnc1NCc1ccc(F)cc1	inconclusive: 27.2%
O=C(NCCCc1ccccc1)c1c(O)nc2sccn2c1=O	active: 178%
CCCn1c(/C=N/Nc2nc3ccccc3[nH]2)nc2ccccc21	inconclusive: 50.4%
CCOc1ccc(NC(=O)CSc2nnc(C3CC3)n2C2CC2)cc1	inactive: -1.07%
Cc1ccc(CNC(=O)c2ccc(Cn3nc(C)c(Cl)c3C)o2)cc1	active: 154%
COc1cccc(C(=O)Nc2ccc(Cl)c(C(F)(F)F)c2)c1	inconclusive: 60.4%
O=S(=O)(N(Cc1ccccc1)[C@@H](CO)Cc1ccccc1)N(Cc1ccccc1)[C@@H](CO)Cc1ccccc1	inconclusive: 30.8%
CSc1nc(-c2ccccc2)c(C#N)c(=O)n1C	inconclusive: 36.7%
Nn1cnnc1N/N=C\c1ccc(-c2ccccc2[N+](=O)[O-])o1	inactive: -0.655%
Cc1c(C)c2ccc(OCC(=O)N3CCC(C(=O)O)(c4ccccc4)CC3)cc2oc1=O	inactive: -0.935%
CCN(CC)c1ccc(C=Nc2ccccc2)c(O)c1	inactive: 0.838%
Cn1c(=O)cc(OCC(=O)N2CCN(c3cccc(C(F)(F)F)c3)CC2)c2ccccc21	active: 47.5%
O=C(NC(C(=O)N/N=C/c1cc([N+](=O)[O-])ccc1O)c1n[nH]c(=O)c2ccccc12)c1ccccc1 (stereo unspecified)	active: 81.9%
C=CCc1cccc(/C=N/NC(=O)c2ccccc2Br)c1O	inconclusive: 48.7%
CCC(=O)NC(c1cccs1)c1cc(Cl)c2cccnc2c1O (stereo unspecified)	inconclusive: 50.2%
CC(C)(C)SCCNC(=O)c1ccc(Cl)c([N+](=O)[O-])c1	inconclusive: 54.3%
CCN(CC)c1ccc(/C=N/Nc2nc(C)cc(=O)[nH]2)c(O)c1	inactive: 2.79%
Cc1cccc(/C=C(\C(=O)C(=O)O)c2ccc3ccccc3n2)c1	inactive: 0.105%

Structure (SMILES)	growth rescue
COCC(=O)NC1CCN(S(=O)(=O)c2ccc(C(=O)O)cc2)CC1	inactive: 0.0475%
Cc1cc(C)n(-c2ncc3c(n2)N(CCO)CCOC3=O)n1	inactive: 0.447%
Oc1ccc(CNc2ccccc2O)cc1	inconclusive: 51%
COc1ccc(CCNC(=O)C2CCN(c3nccc(C)n3)CC2)cc1	inconclusive: 45.9%
O=C(Nc1ccccc1)Nc1cccc2cccnc12	inconclusive: 25.7%
Cc1ccc(C)c(S(=O)(=O)N2CCN(C(=O)Cc3ccsc3)CC2)c1	inconclusive: 34%
Cc1cc(Nc2cccc(F)c2)nc(-c2ccccc2O)n1	inconclusive: 137%
CCOc1ccc(NC(=O)Cn2sc3nc(C)cc(C)c3c2=O)cc1	active: 73.5%
Cn1c(=O)c2c(ncn2CCO)n(C)c1=O	inconclusive: 64.5%
CCC(=O)NC(c1ccc(C)cc1)c1cc(Cl)c2cccnc2c1O (stereo unspecified)	inconclusive: 29.2%
CCOc1ccc(N2CC(C(=O)Nc3ccc(S(=O)(=O)N4CCOCC4)cc3)CC2=O)cc1 (stereo unspecified)	inconclusive: 39.4%
C/C(CC(=O)Nc1cccc(F)c1)=N\NC(=O)c1ccncc1	inconclusive: 25.5%
Oc1ccc(C2=NN(c3ccccc3)C(c3ccc(F)cc3)C2)cc1 (stereo unspecified)	inconclusive: 40.8%
COC(=O)c1nnn(CC(=O)Nc2ccc(C)c(F)c2)c1C(=O)OC	inconclusive: 33.4%
O=Nc1c(O)n(Cc2ccc(Cl)cc2Cl)c2ccccc12	active: 90%
O=C(CSCc1ccccc1)N1CCN(S(=O)(=O)c2cccc(F)c2)CC1	inactive: -0.367%
CCn1c(=O)n(C)c2c(=O)n(C)c(=O)n(C)c21	inactive: 2.72%
COc1cccc2cc(C(=O)Nc3ccccc3C)/c(=N/O)oc12	inactive: 0.812%
CCCc1cc(NCc2ccccn2)n2nc(C)c(-c3ccccc3)c2n1	active: 67.2%
O=c1c(-c2ccc(Oc3ccccc3)cc2)[n+]([O-])c2ccccc2n1OCc1ccccn1	inactive: -0.402%
CC(CSc1n[nH]c(=S)s1)c1ccccc1 (stereo unspecified)	inconclusive: 98.2%
O=C(Nc1ccnn1C1CCN(C(=O)c2ccc(F)cc2)CC1)C1CCOC1 (stereo unspecified)	inconclusive: 49.4%
C/C(=C\c1ccccc1)C(=O)NCCN1CCOCC1	inconclusive: 38.8%

As a working copy, some entries already given.
Structure (SMILES)	growth rescue
COC(=O)c1nnn(CC(=O)Nc2ccc(C)c(F)c2)c1C(=O)OC	inconclusive: 33.4%
O=Nc1c(O)n(Cc2ccc(Cl)cc2Cl)c2ccccc12	active: 90%
O=C(CSCc1ccccc1)N1CCN(S(=O)(=O)c2cccc(F)c2)CC1	inactive: -0.367%
CCn1c(=O)n(C)c2c(=O)n(C)c(=O)n(C)c21	inactive: 2.72%
COc1cccc2cc(C(=O)Nc3ccccc3C)/c(=N/O)oc12	inactive: 0.812%
CCCc1cc(NCc2ccccn2)n2nc(C)c(-c3ccccc3)c2n1	active: 67.2%

(list continues)

Structure (SMILES)	growth rescue
O=C1/C(=C/c2ccc(O)cc2)SC(=S)N1CC1CCCO1 (stereo unspecified)	inactive: 1.75%
CCC(C)n1ncn(-c2ccc(N3CCN(c4ccc(OCC5COC(Cn6cncn6)(c6ccc(Cl)cc6Cl)O5)cc4)CC3)cc2)c1=O (stereo unspecified)	inconclusive: 111% and active: 181%
C[n+]1ccccc1/C=N/O	inconclusive: 26.5%
COc1ccc(C(=O)O/N=C2\C(=O)N(C)c3ccccc32)cc1	inconclusive: 82.4%
CCc1nonc1NC(=O)c1oc2ccc(C)cc2c1C	inactive: 0.176%
CCOC(=O)c1ccc(N2C(=O)CC(N3CCC(C(=O)OCC)CC3)C2=O)cc1 (stereo unspecified)	inconclusive: 476%
CCOc1nc(C)ccc1-c1noc(-c2cccnc2)n1	inconclusive: 29.3%
CCOC(CCNC(=O)c1cn(CCOC)c(=O)c2c1c1ccccc1n2C)OCC	inactive: 0.556%
CCC(C)c1ccc(NC(=S)NCc2ccccc2OC)cc1 (stereo unspecified)	active: 83.5%
CCn1c(CN2CCN(C(=O)c3ccco3)CC2)nc2c1c(=O)n(C)c(=O)n2C	inconclusive: 35.1%
COC(=O)c1ccc(NC(=O)c2cccc(C)c2[N+](=O)[O-])cc1	inactive: 2.74%
CC1COc2ccccc2N1S(=O)(=O)c1ccc(Cl)cc1 (stereo unspecified)	active: 32.1%
Cc1ccc(C(=O)c2coc3ccc(O)c(CN4CCN(C)CC4)c23)cc1	inconclusive: 47.3%
C(=N\N1CCOCC1)/c1cccs1	inactive: 0.38%
Cc1cccc(-c2cc3nc(-c4ccccc4)cc(=O)n3[nH]2)c1	inactive: 1.29%
Cc1ccc(-c2noc(CN(C(=O)Cc3ccccc3)C(C)C)n2)cc1	inactive: 6.25%
COc1ccc(C2=CC3=C(Br)C(=O)C(C)(OC(=O)C4CCCC4)C(=O)C3=CO2)cc1 (stereo unspecified)	inconclusive: 38.3%
C=CCOc1cccc(CNCc2cccnc2)c1	inconclusive: 41.8%
COc1ccc(-c2c(C#Cc3ccc(N(C)C)cc3)c3ccccc3n2C)cc1	inactive: -0.386%
Clc1ccc(Cn2ncc3c(NCc4ccccc4)ncnc32)cc1	inconclusive: 28.8%
O=C(CCN1C(=O)/C(=C/c2ccc(Cl)cc2)SC1=S)Nc1cccc(C(=O)O)c1	inactive: -0.542%
COc1ccc(N=NC2C(=O)N(c3ccccc3)N=C2C)cc1 (stereo unspecified)	inactive: 15.5%

Some of the entries above in another layout:
Structure (SMILES),growth rescue
Cc1cccc(/C=C(\C(=O)C(=O)O)c2ccc3ccccc3n2)c1,inactive: 0.105%
COc1ccc(C2=CC3=C(Br)C(=O)C(C)(OC(=O)C4CCCC4)C(=O)C3=CO2)cc1 (stereo unspecified),inconclusive: 38.3%

— PubChem BioAssay AID504582 (Broad Institute, 2011)
